For this test, the target named is 抗体41S-2の軽鎖(41S-2-L). The test is described as follows: ELISA screening of hybridomas.

No constants are given. Whether binding was seen depends on the method and setting. Some results given as binding are weak or reduced against the parent protein; the word gives no strength.

B1: i41-7完全抗体 (antibody, V domains shown)
VH: EIQLQQSGPELVRPGASVKVSCKASGYSFTNSIMYWVRQSHGKSLEWIGYIDPYNGGTSYNQKFKGKATLTVDKSSSTAFMHLNSLTSEDSAVYFCARFIVVVADVMDYWGQGTSVTVSS
VL: DIVMTQSHKFMSTSVGDRVSITCKASQDVSTAVAWYQQKPGQSPKLLIYWASTRHTEVPDRFTGSGSGTDYTLTISSVQAEDLALYYCQQHYNTPLTFGAGTKLELKR
As for B1, the binding entry was “binds”.
